# Laboratory results as given in ChEMBL document CHEMBL3739408, “Antibacterial Prenylated Acylphloroglucinols from Psorothamnus fremontii” (J Nat Prod, 2015).
# System: HepG2
# Experiment: Cytotoxicity against human HepG2 cells assessed as cell viability after 48 hrs by neutral red-based assay
# Conditions: HepG2, 48 h
# Summary of the method: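 Mammalian cell lines from ATCC: human hepatic carcinoma HepG2, pig kidney epithelial LLC-PK1, and African green monkey kidney Vero. Highest test concentration was 50 μg/mL, and doxorubicin was the positive control at up to 10 μg/mL. IC50 was taken as the concentration giving 50% growth inhibition of the mammalian cells.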
compound,measurement,value
COc1cccc2c1C(=O)c1c(O)c3c(c(O)c1C2=O)C[C@@](O)(C(=O)CO)C[C@@H]3O[C@H]1C[C@H](N)[C@H](O)[C@H](C)O1 [DOXORUBICIN],IC50,0.4 mg/L
